Source: PubChem BioAssay AID686937 (Drosophila RNAi Screening Center, 2013)

- Purpose: 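Genes in the fly needed for secretion of protein constitutively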 (primary screen)
- Cells: Drosophila S2 cells expressing secreted horseradish peroxidase
- Reagents: long dsRNA against Drosophila genes
- Timing: about 5.5 days (5 days dsRNA, then 12 h reporter induction)
- Conditions: reporter expression induced after 5 days of dsRNA, read 12 h later; inducer not stated
- Read-out: 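After 5 days of dsRNA and 12 h of reporter induction, medium peroxidase read by chemiluminescence and scored as per-plate z-score; higher values mean more reporter released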
- Reading the numbers: z-score: higher = more reporter secreted into medium
In all, the deposit lists about 23,000 reagents; below is a random part of those that have a named target and a result. 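Reduced-secretion tags in replicate 1 do not always agree with the z-scores; no criterion for assigning the tags was given.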 Names joined by + are all predicted targets of the reagent. Further read-outs or replicates are left out here. The record does not give: the amount of reagent.

The opening 5 records as a preview:
predicted target	DRSC id	z-score, replicate 1	z-score, replicate 2	z-score, replicate 3
Msp300 (Muscle-specific protein 300 kDa)	DRSC00854	-0.58	-1.3	
Msp300 (Muscle-specific protein 300 kDa)	DRSC00856	0.1	0.22	
Msp300 (Muscle-specific protein 300 kDa)	DRSC00857	0.35	0.28	
Msp300 (Muscle-specific protein 300 kDa)	DRSC00858	-0.21	0.24	
Msp300 (Muscle-specific protein 300 kDa)	DRSC02360	0.45	0.18	

The listing, from the start:
predicted target	DRSC id	z-score, replicate 1	z-score, replicate 2	z-score, replicate 3
Msp300 (Muscle-specific protein 300 kDa)	DRSC00854	-0.58	-1.3	
Msp300 (Muscle-specific protein 300 kDa)	DRSC00856	0.1	0.22	
Msp300 (Muscle-specific protein 300 kDa)	DRSC00857	0.35	0.28	
Msp300 (Muscle-specific protein 300 kDa)	DRSC00858	-0.21	0.24	
Msp300 (Muscle-specific protein 300 kDa)	DRSC02360	0.45	0.18	
Msp300 (Muscle-specific protein 300 kDa)	DRSC03369	0.1	0.23	
Msp300 (Muscle-specific protein 300 kDa)	DRSC03370	0.13	0.26	
ATP8A (ATPase 8A)	DRSC05421	0.47	0.28	
ATP8A (ATPase 8A)	DRSC06643	0.1	0.29	
ATP8A (ATPase 8A)	DRSC06644	0.35	0.15	
na (narrow abdomen)	DRSC19639	0.3	0.03	
Acbp5 (Acyl-CoA binding protein 5)	DRSC10548	0.45	0.32	
CG2861	DRSC18229	0.18	0.07	
tws (twins)	DRSC12767	0.22	0.42	
tws (twins)	DRSC17092	-0.02	0	
bol (boule)	DRSC08964	0.12	0.38	
bol (boule)	DRSC10444	0.37	-0.23	
bol (boule)	DRSC11329	-0.51	-0.62	
how (held out wings)	DRSC16966	0.27	-0.25	
net	DRSC00309	0.32	0.01	
CG15022	DRSC08476	0.35	-0.88	
CG30273	DRSC22059	-0.38	-0.75	
CG2021	DRSC08546	-0.25	-0.1	
Act87E (Actin 87E)	DRSC22578	-0.02	-0.03	
CG15099	DRSC06528	0.21	-0.13	
porin	DRSC03594	0.51	0.25	
CG10803	DRSC17763	0.11	0	
asf1 (anti-silencing factor 1)	DRSC11324	0.83	0.69	
CG12491 + CG34105	DRSC04008	0.36		
CG12491 + CG34105	DRSC04124	0.3	0.42	
pzg (putzig)	DRSC11848	-0.28	0.17	
CG18507	DRSC01334	0.34	0.07	
CG18507	DRSC01914	0.82	0.56	
Mst98Ca (Male-specific RNA 98Ca)	DRSC16749	0.01	0.36	0.66
CG1722	DRSC20547	0.3	0.21	
Jhbp13 (Juvenile hormone binding protein 13)	DRSC02913	0.12	0.44	
wdn (wings down)	DRSC17095	-0.13	0.07	
fj (four-jointed)	DRSC07619	0.35	0	
twr (twisted bristles roughened eye)	DRSC12491	-2.21	-1.39	
CG5321	DRSC19940	0.3	0.49	
CG5321	DRSC22802	-0.41	-0.1	
Sans (Scaffold protein containing ankyrin repeats and SAM domain)	DRSC06357	0.07	0.44	
hry (hairy)	DRSC11353	-0.07	-0.8	
CG12702	DRSC19487	0.21	0.53	
ND-75 (NADH dehydrogenase (ubiquinone) 75 kDa subunit)	DRSC18686	0.24	0.26	
lncRNA:CR32385 (long non-coding RNA:CR32385)	DRSC22966	-0.05	-0.26	
Obp50b + Obp50c	DRSC21818	-0.26	0.1	
sut4 (sugar transporter 4)	DRSC07703	0.56	0.47	
CLS (Cardiolipin synthase)	DRSC15642	-0.05	-0.94	
CG5397	DRSC00683	0.25	0.36	
CG7255	DRSC10790	0.43	0.36	
TTLL1B (Tubulin tyrosine ligase-like 1B)	DRSC08594	0.17	0.27	
veli	DRSC16276	0.12	0.28	
AOX4 (Aldehyde oxidase 4)	DRSC15337	0.09	0.55	
lncRNA:CR42646 (long non-coding RNA:CR42646)	DRSC04759	0.9		
fred (friend of echinoid)	DRSC00349	0.13	0.14	
fred (friend of echinoid)	DRSC00599	0.47	0.14	0.29
fred (friend of echinoid)	DRSC00601	0.03	0.18	
fred (friend of echinoid)	DRSC00602	0.01	0.27	
fred (friend of echinoid)	DRSC21906	0.66	0.8	
